In PubChem BioAssay AID1671190 (National Center for Advancing Translational Sciences (NCATS), 2021):
Hit rate of the full screen: of about 580,000 compounds, about 6,100 (1.1%) were called active. Inconclusive means that the source gave no clear call. Such entries were picked first, then a sample of the others. The call rests on the fitted dose curve; in most records, active means well fitted inhibition curve with a large enough effect; inconclusive means small, poorly fitted or top-dose-only effect, or another doubt; inactive means no such curve, though single readings can be large or run the other way. A potency beside an inconclusive call is a rough fit, not a confirmed value.
On the % scale 0 is the no-effect control and ±100 the full control effect; potency means the concentration at half of the fitted maximal effect.

By UniProt entry, the sequences of proteins in these tests, tags left out. Where a name states a change or a piece, a line headed by the entry shows the natural chain unless it says otherwise.
UniProt P18054: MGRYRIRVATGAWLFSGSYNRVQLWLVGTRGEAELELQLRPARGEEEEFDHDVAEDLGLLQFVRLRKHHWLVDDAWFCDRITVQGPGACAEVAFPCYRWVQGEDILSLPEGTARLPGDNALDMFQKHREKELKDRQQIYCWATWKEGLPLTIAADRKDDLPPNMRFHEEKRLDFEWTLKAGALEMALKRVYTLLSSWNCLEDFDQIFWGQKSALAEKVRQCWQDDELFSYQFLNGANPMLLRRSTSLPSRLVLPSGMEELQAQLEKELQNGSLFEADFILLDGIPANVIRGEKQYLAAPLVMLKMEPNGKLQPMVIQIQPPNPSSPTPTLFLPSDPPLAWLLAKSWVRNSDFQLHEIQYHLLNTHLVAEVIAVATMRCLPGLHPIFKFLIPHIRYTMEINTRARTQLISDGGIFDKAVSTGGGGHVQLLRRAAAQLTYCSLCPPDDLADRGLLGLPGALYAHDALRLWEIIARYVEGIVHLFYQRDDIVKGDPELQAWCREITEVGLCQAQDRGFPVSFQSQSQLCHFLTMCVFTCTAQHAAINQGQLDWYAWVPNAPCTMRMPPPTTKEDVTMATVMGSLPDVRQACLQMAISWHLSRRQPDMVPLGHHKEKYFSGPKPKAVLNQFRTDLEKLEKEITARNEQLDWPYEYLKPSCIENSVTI

What follows are compounds tested against Polyunsaturated fatty acid lipoxygenase ALOX12 (Homo sapiens) (UniProt P18054) (assay: Primary qHTS assay for inhibitors of human arachidonate 12S-lipoxygenase (ALOX12): Round 2). Details: purified 12hLO, xylenol orange hydroperoxide absorbance; activity change, negative = inhibition: at 108 µM (top of the series) unless noted.
Procedure, shortened: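 Purified human 12hLO at 150 nM in 25 mM Hepes, 0.01% Triton X-100, pH 7.0, preincubated 15 min at room temperature with compound. Reaction started with 40 uM arachidonic acid, 30 min at room temperature. Hydroperoxide measured by Fe-xylenol orange, 573/405 nm absorbance ratio.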
With `Cc1ccc2nc(CO[C@H]3CN(Cc4nccn4C)C[C@H]3F)[nH]c2c1` the “activity change, negative = inhibition” value was inactive: 87% [at 176 µM].
`CC(=O)Nc1ccc(/C=N/Nc2nc3ccccc3[nH]2)cc1` was tested, and the activity change, negative = inhibition was inconclusive: -34.5% [inhibitor].
For `COc1ccc(C2CC(=O)Nc3c2ncn3-c2cccc(C(F)(F)F)c2)cc1OC` (stereo unspecified), the Potency was active: 28.2 µM.
For `O=[N+]([O-])c1cc(O)c2ncccc2c1`, the Potency was inconclusive: 15.8 µM [inhibitor, full curve].
With `Cc1cccn2c(=O)nc(SCC(=O)Nc3ccc4c(c3)OCCO4)nc12` the Potency was inconclusive: 112 µM [inhibitor, single point].
In the case of `CC(=O)c1nnn(-c2nc(N3CCCC3)nc(N3CCCC3)n2)c1C`, the “activity change, negative = inhibition” value is reported as inactive: 52.2%.
For `O=C(Nc1ccc(N2CCOCC2)cc1)c1cccc(S(=O)(=O)N2CCCCC2)c1`, the “activity change, negative = inhibition” value was inactive: 1.95%.
With `Cn1cccc1C(=O)OCc1csc(-c2ccccc2)n1` the Potency was inconclusive: 17.8 µM [inhibitor, partial curve, poor fit].
With `O=C(COC(=O)c1ccccc1-c1ccc(C(F)(F)F)cc1)c1ccc([N+](=O)[O-])cc1` the Potency was inconclusive: 50.1 µM [inhibitor, full curve, poor fit].
In the case of `CS(=O)(=O)N(CC(=O)N1CCCCC1)Cc1ccccc1`, the Potency is reported as inconclusive: 56.2 µM [inhibitor, single point].
For `CC(C)OP(=O)(OC(C)C)C(Nc1ccccc1)c1cccnc1` (stereo unspecified), the Potency was inconclusive: 112 µM [inhibitor, single point].
In the case of `CCOC(=O)c1cccc(NC(=O)C(CC(C)C)N2Cc3ccccc3C2=O)c1` (stereo unspecified), the Potency is reported as inconclusive: 141 µM [inhibitor, partial curve, poor fit].
In the case of `COc1ccccc1Oc1ccc(N/C=C/C(=O)c2ccc(Cl)cc2)cc1`, the Potency is reported as inconclusive: 100 µM [inhibitor, partial curve, poor fit].
For `O=C(O)c1ccc(N/N=C/c2cccc3cccnc23)cc1`, the “activity change, negative = inhibition” value was inactive: 1.62%.
With `O=S(=O)(Nc1ccc(Cl)cc1)c1ccc(NS(=O)(=O)c2ccc3c(c2)OCCO3)cc1` the Potency was inconclusive: 50.1 µM [inhibitor, partial curve, poor fit].
For `COc1ccc(NC(=O)CN(C)C(=O)c2cccc(Oc3ccccc3)c2)cc1`, the Potency was inconclusive: 126 µM [inhibitor, single point].
`N#Cc1cccc(-c2nc(NCc3cccnc3)c3ccccc3n2)c1` was tested, and the Potency was inconclusive: 11.2 µM [inhibitor, partial curve, poor fit].
`CN1Cc2cccn2CC1CNC(=O)c1ccsc1` (stereo unspecified) was tested, and the “activity change, negative = inhibition” value was inactive: 70.6%.
With `COc1ccccc1CNC(=O)N1CCN(c2ccccc2Cl)CC1` the Potency was inconclusive: 112 µM [inhibitor, partial curve, poor fit].
With `OC1CC2CCC(C1)N2CCCN1c2ccccc2Sc2ccc(Cl)cc21` (stereo unspecified) the Potency was inconclusive: 44.7 µM [inhibitor, partial curve, poor fit].
`C[C@H]1CN(C2CCCCC2)C(=O)[C@@H]1CC(=O)Nc1ccccc1` was tested, and the Potency was inconclusive: 100 µM [inhibitor, single point].
With `C[n+]1cccc(/C=N/NC(=O)CC23CC4CC(CC(C4)C2)C3)c1` the Potency was inconclusive: 56.2 µM [inhibitor, partial curve, poor fit].
`Cc1noc(C2CC3(CCN(C(=O)Cc4cccc(F)c4)CC3)CN2C)n1` (stereo unspecified) was tested, and the “activity change, negative = inhibition” value was inactive: -2.32%.
In the case of `O=C(NCCc1ccc(Cl)cc1)c1ccc(CS(=O)Cc2cccc(Cl)c2)o1` (stereo unspecified), the Potency is reported as inconclusive: 50.1 µM [inhibitor, partial curve, poor fit].
With `C=CCCC(=O)Nc1nc(C)c(-c2csc(Nc3ccc(Cl)cc3Cl)n2)s1` the Potency was inconclusive: 50.1 µM [inhibitor, partial curve, poor fit].
For `CC(C)(C)NC(=O)Cn1nc(C(F)(F)F)c2c1CCCC2`, the “activity change, negative = inhibition” value was inactive: -6.05%.
`COc1ccc(-c2csc(NC(=S)NC(=O)c3ccccc3)n2)cc1Br` was tested, and the Potency was inconclusive: 39.8 µM [inhibitor, single point].
For `CCOC(=O)c1c(NC(=O)C(=O)N/N=C/c2ccccc2OC)sc2c1CCCCC2`, the “activity change, negative = inhibition” value was inactive: 26.3%.
In the case of `CC(C)c1ccc(OCC(=O)NCc2n[nH]c(=O)c3ccccc23)cc1`, the “activity change, negative = inhibition” value is reported as inactive: 1.38%.
`Cc1ccn2c(Nc3ccc4c(c3)OCCO4)c(-c3ccc(Cl)s3)nc2c1` was tested, and the Potency was inconclusive: 12.6 µM [inhibitor, partial curve].
`CN(C1CCCCC1)S(=O)(=O)c1ccc2c(c1)c(=O)c(C(=O)NCCc1ccccc1)cn2C` was tested, and the Potency was inconclusive: 28.2 µM [inhibitor, partial curve].
For `O=C(O)CSCC(=O)N1CCN2C(=O)c3cc(-c4ccc(Cl)cc4)ccc3NC(=O)[C@@H]2C1`, the Potency was inconclusive: 12.6 µM [inhibitor, full curve, poor fit].
In the case of `c1nc2sc3c(c2c2nnnn12)CCCC3`, the “activity change, negative = inhibition” value is reported as inactive: -15.2%.
With `CN(C)Cc1ccccc1CCc1ccccc1` the “activity change, negative = inhibition” value was inactive: 1.48%.
For `Cc1cc(N(C)C(=O)c2ccc3c(c2)S(=O)(=O)c2cc(Cl)ccc2C3=O)c(C(F)(F)F)o1`, the Potency was inconclusive: 44.7 µM [inhibitor, partial curve, poor fit].
For `O=C(Cc1cc(=O)[nH][nH]1)N/N=C/c1c(F)cccc1Cl`, the “activity change, negative = inhibition” value was inactive: 3.99%.
In the case of `CCCCNC(=S)N/N=C/C1=CCC2CC1C2(C)C` (stereo unspecified), the Potency is reported as inconclusive: 44.7 µM [inhibitor, partial curve, poor fit].
In the case of `COCCCNC(=O)C(NC(=O)c1ccccc1)C1CCN(C(=O)c2ccc(Cl)cc2)CC1` (stereo unspecified), the “activity change, negative = inhibition” value is reported as inactive: 50.1%.
`COCC(C)n1c(SCC(=O)N2CC(=O)Nc3ccccc32)nc2ccccc2c1=O` (stereo unspecified) was tested, and the Potency was inconclusive: 112 µM [inhibitor, single point].
`O=C(CN1CCCCC1)Nc1nc(-c2ccc(Cl)cc2)cs1` was tested, and the “activity change, negative = inhibition” value was inactive: -0.188%.
`O=S(=O)(Cc1ccccc1)C(CCCc1ccccc1)S(=O)(=O)Cc1ccccc1` was tested, and the “activity change, negative = inhibition” value was inactive: 5.51%.
`O=C(CSc1ccccn1)NCc1ccc2c(c1)OCO2` was tested, and the “activity change, negative = inhibition” value was inactive: -2.54%.
`CC(=O)Nc1cc(-c2ccc(N(C)C)cc2)cn2c(-c3ccc(F)c(Cl)c3)cnc12` was tested, and the Potency was inconclusive: 100 µM [inhibitor, partial curve, poor fit].
`Cc1oc(-c2ccc(C(=O)Nc3cc(F)ccc3F)cc2)nc1COc1ccccc1` was tested, and the Potency was inconclusive: 141 µM [inhibitor, single point].
For `COc1ccccc1/C=C/C=N\N1CCN(Cc2ccccc2Cl)CC1`, the Potency was inconclusive: 39.8 µM [inhibitor, partial curve, poor fit].
With `Cc1ccc(NC(=O)c2ccc(OCC3CCCO3)cc2)cc1Cl` (stereo unspecified) the “activity change, negative = inhibition” value was inactive: 6.43%.
For `N#Cc1ccc(CNCc2cc(Br)cs2)cc1`, the Potency was inconclusive: 44.7 µM [inhibitor, partial curve, poor fit].
In the case of `CC(C)(C)NC(=S)N/N=C/c1cccnc1`, the Potency is reported as inconclusive: 28.2 µM [inhibitor, single point].
In the case of `CC1CCN(c2ccccc2NC(=S)NC(=O)c2cccs2)CC1`, the Potency is reported as active: 31.6 µM.
For `COc1ccc(NC(=O)/C(C#N)=C/C=C/c2ccco2)cc1`, the Potency was inconclusive: 39.8 µM [inhibitor, partial curve, poor fit].
For `CCCNC(=O)C1(C)CCN(Cc2ccc(C(=O)OCC)cc2)C1` (stereo unspecified), the “activity change, negative = inhibition” value was inactive: -7.07%.
With `COc1ccccc1/C=C/C=N/n1c(-c2cc(-c3ccccc3)n[nH]2)n[nH]c1=S` the Potency was active: 10 µM.
`COc1ccc(OC)c(N/C(C)=C/C(=O)c2ccc(C)o2)c1` was tested, and the Potency was inconclusive: 141 µM [inhibitor, partial curve, poor fit].
In the case of `CN(CC1CCOC1)C(=O)Cc1ccccc1` (stereo unspecified), the Potency is reported as inconclusive: 0.708 µM [inhibitor, full curve].
In the case of `Cc1cc2oc(=O)cc(CN3CCCCCCC3)c2cc1C`, the Potency is reported as inconclusive: 5.62 µM [inhibitor, full curve].
With `COc1ccc(NC(=O)[C@H]2C[C@H](CCSC)N[C@]23C(=O)Nc2ccc(F)cc23)cc1` the Potency was inconclusive: 39.8 µM [inhibitor, partial curve, poor fit].
`CCC1c2nccn2CCCN1C(=O)c1cc(C)n(CCCOC)c1C` (stereo unspecified) was tested, and the “activity change, negative = inhibition” value was inactive: 64.8%.
For `Fc1ccc(CCNC(=S)Nc2cccc(Cl)c2)cc1`, the Potency was inconclusive: 44.7 µM [inhibitor, partial curve, poor fit].
For `N#Cc1ccccc1N=Cc1ccc(F)cc1`, the Potency was inconclusive: 112 µM [inhibitor, single point].
With `COc1ccc(CNc2ncncc2-c2ccccc2Cl)c(OC)c1` the “activity change, negative = inhibition” value was inactive: 38.9%.
With `COc1cc(C)c(C)cc1S(=O)(=O)n1nnc2ccccc21` the Potency was inconclusive: 3.55 µM [inhibitor, full curve, poor fit].
`CCC(=O)c1ccc(OCC(=O)Nc2ccccc2N2CCOCC2)cc1` was tested, and the “activity change, negative = inhibition” value was inactive: 123%.
In the case of `O=C(Nc1cc([N+](=O)[O-])ccc1Cl)C(Sc1ccccc1)c1ccccc1` (stereo unspecified), the “activity change, negative = inhibition” value is reported as inactive: 15.5%.
For `Cc1ccc(OC(=O)c2ccccc2P(=O)(O)O)cc1`, the Potency was inconclusive: 2 µM [inhibitor, full curve, poor fit].
`O=C1/C(=C\c2ccco2)CCC/C1=C\c1ccco1` was tested, and the Potency was active: 25.1 µM.
For `CCC(C)NC(=O)CCn1c(=O)c2cccn2c2ccc(F)cc21` (stereo unspecified), the “activity change, negative = inhibition” value was inactive: -2.84%.
For `COc1cc(C(=O)Oc2c(Sc3ccc(C)cc3)c(C)nn2-c2ccccc2)cc(OC)c1OC`, the Potency was inconclusive: 79.4 µM [inhibitor, partial curve, poor fit].
`O=C(O)C(Cc1ccnc2ccccc12)=NO` was tested, and the Potency was inconclusive: 0.398 µM [inhibitor, full curve, poor fit].
`O=C(O)c1ccc(NC(=O)c2cn(-c3ccccc3)nc2-c2cccc(Cl)c2)cc1` was tested, and the Potency was inconclusive: 39.8 µM [inhibitor, partial curve, poor fit].
With `O=C(O)CSCc1ccccn1` the Potency was inconclusive: 0.891 µM [inhibitor, full curve, poor fit].
In the case of `CC1Sc2ccc(S(=O)(=O)N3CCC(C(=O)N(C)Cc4ccco4)CC3)cc2NC1=O` (stereo unspecified), the “activity change, negative = inhibition” value is reported as inactive: -2.15%.
